Percent effect of library compounds

By UniProt entry, the sequences of proteins in these tests, tags left out. Residues count along the entry.
UniProt Q4DA54, 1-478: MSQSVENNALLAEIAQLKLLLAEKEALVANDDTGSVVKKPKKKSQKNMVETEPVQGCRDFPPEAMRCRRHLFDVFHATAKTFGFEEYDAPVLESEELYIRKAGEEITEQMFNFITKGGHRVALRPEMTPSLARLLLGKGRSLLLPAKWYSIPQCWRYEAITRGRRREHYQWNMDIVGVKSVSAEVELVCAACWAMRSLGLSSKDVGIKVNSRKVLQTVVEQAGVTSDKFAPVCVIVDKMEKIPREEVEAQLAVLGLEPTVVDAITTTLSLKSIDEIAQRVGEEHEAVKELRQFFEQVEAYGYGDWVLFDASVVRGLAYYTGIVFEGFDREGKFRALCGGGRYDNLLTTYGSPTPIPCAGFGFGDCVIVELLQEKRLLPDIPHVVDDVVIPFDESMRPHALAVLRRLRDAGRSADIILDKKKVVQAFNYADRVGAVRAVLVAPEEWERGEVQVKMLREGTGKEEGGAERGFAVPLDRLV
UniProt A4I591, 1-473: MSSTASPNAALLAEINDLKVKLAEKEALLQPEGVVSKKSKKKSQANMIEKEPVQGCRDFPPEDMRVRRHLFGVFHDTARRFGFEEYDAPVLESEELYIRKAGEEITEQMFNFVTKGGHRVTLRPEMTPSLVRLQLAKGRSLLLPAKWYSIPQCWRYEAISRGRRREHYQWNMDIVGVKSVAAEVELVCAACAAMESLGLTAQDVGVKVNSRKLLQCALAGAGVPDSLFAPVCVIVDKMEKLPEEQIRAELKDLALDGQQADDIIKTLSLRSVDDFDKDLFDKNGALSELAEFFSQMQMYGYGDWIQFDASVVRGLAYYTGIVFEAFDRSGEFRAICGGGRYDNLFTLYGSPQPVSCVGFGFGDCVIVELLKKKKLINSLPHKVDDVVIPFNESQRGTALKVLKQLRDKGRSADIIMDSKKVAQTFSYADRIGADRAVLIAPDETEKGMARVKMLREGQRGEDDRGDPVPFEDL
UniProt P9WPC5, whole entry: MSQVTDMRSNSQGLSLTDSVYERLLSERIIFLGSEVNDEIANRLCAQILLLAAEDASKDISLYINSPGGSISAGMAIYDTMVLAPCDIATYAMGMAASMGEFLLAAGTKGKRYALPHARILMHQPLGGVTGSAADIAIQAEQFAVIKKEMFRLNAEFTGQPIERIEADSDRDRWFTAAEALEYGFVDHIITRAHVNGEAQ
UniProt P9WPC3, whole entry partner: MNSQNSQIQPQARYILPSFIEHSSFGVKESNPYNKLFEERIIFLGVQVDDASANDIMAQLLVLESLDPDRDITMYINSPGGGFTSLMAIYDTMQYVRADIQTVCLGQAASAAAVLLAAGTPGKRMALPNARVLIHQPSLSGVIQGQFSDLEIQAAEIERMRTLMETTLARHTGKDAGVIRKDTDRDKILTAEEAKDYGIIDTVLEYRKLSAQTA

Source: ChEMBL document CHEMBL3988442, “University of Dundee, Small-Polar-MMV Screening Library” (2021).

Toxoplasma: 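Assay of Toxoplasma gondii numbers, read through their beta-galactosidase reporter with a colour substrate. Tested at 10 µM. Higher reads as fewer parasites (inferred from which compounds were picked for retests). Size under these conditions: about 67,000 compounds, about 260 of them at 50% or above in at least one test.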
Leishmania in macrophages: 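Cell assay of Leishmania donovani living inside macrophages; the read-out is not stated. Concentration: 30 µM. Direction is inferred from retests: higher values go with stronger inhibition. Of about 69,000 compounds tested this way, about 1,000 (1.5%) reached 50% or more in at least one test.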
TcHisRS: 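Enzyme assay of histidyl-tRNA synthetase; the read-out is not stated. Target: Histidine-tRNA ligase, Trypanosoma cruzi CL Brener (UniProt Q4DA54). Concentration: 30 µM. Direction is inferred from retests: higher values go with stronger inhibition. Size under these conditions: about 69,000 compounds, about 31 of them at 50% or above in at least one test.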
LiHisRS: 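Enzyme assay of histidyl-tRNA synthetase; the read-out is not stated. Target: Histidine-tRNA ligase, Leishmania infantum (UniProt A4I591). Compounds at 30 µM. The record gives no direction; compounds that gave an IC50 in retests scored well above the rest, so higher reads as stronger inhibition. The assay is labelled LdHisRS but filed under L. infantum. Of about 69,000 compounds tested this way, about 410 (0.6%) reached 50% or more in at least one test.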
ClpP1P2: 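Protease assay of ClpP1P2, read by the AMC dye that it sets free. Target: ClpP1P2, Mycobacterium tuberculosis (UniProt P9WPC5 and UniProt P9WPC3). Concentration: 50 µM. Higher reads as stronger inhibition, judged from the few compounds that gave an IC50. Most other retested compounds had strongly negative values. Size under these conditions: about 69,000 compounds, about 10 of them at 50% or above in at least one test.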
T. brucei: 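Whole-parasite assay of Trypanosoma brucei over 72 hours; the read-out is not stated. Concentration: 30 µM. Direction is inferred from retests: higher values go with stronger inhibition. Values scatter widely below zero; nearly all retest evidence comes from the higher of the two concentrations used. Size under these conditions: about 64,000 compounds, about 940 of them at 50% or above in at least one test.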

Each number is a percent effect as filed.
The controls that fix the scale are not given in the record; negative values are as filed.
This is an unselected part of the compounds tested.

O=C1N(CC2CC2)CCC12CCN(c1ncccn1)CC2 gave TcHisRS: 4.511%; LiHisRS: 24.39%; ClpP1P2: 13.64%. COc1c(CNC2CCc3c(Cl)cccc32)c(C)nn1C (stereo not given) gave TcHisRS: 2.905%; LiHisRS: 20.39%; ClpP1P2: -10.8%. Result for CCCc1nc(NC2(COC)CCCC2)c2cnn(C)c2n1 was Toxoplasma: -0.4061%; Leishmania in macrophages: 7.545%; TcHisRS: 7.463%; LiHisRS: 15.66%; ClpP1P2: -6.633%; T. brucei: -24.47%. Result for CCc1nc(C2CCCN2C(=O)c2ccc(N(C)C)nn2)no1 (stereo not given) was Toxoplasma: 2.388%; Leishmania in macrophages: 22.84%; TcHisRS: 8.455%; LiHisRS: 16.51%; ClpP1P2: -19.12%. CN(Cc1ccncc1)C(=O)c1ccc2c(c1O)OC(C)(C)C2 gave Toxoplasma: 9.231%; Leishmania in macrophages: -12.06%; TcHisRS: 5.759%; LiHisRS: 10.34%; ClpP1P2: 3.898%; T. brucei: -35.74%. With COCCN(Cc1ccc(C)o1)C(=O)Nc1nnc(C(F)F)s1 the screen gave Toxoplasma: 19.45%; Leishmania in macrophages: 8.437%; TcHisRS: 0%; LiHisRS: 13.49%; ClpP1P2: -3.175%; T. brucei: -83.19%.

NC(=O)C1=NC2=NS(=O)(=O)c3ccccc3N2N1Cc1ccccc1Cl read Leishmania in macrophages: 2.467%; TcHisRS: 10.34%; LiHisRS: 37.1%; ClpP1P2: -8.715%; T. brucei: -10.59%. Result for COc1cccc(N2CC3(CCN(C(=O)NC(C)C)C3)CC2=O)c1 (stereo not given) was Toxoplasma: 3.508%; Leishmania in macrophages: 18.53%; TcHisRS: 10.74%; LiHisRS: 18.18%; ClpP1P2: 4.358%; T. brucei: 36.75%. With O=C(O)C(F)(F)F.[H][C@@]12COC[C@H](C(=O)N3CCCO3)[C@]1([H])CN(C1CCOCC1)C2 the screen gave Toxoplasma: 3.571%; Leishmania in macrophages: 10.73%; T. brucei: -3.871%. With COCCN1CCC2(CC1)CC(NCc1ccc(C)s1)c1ccccc12.O=C(O)C(F)(F)F.O=C(O)C(F)(F)F (stereo not given) the screen gave Toxoplasma: -11.53%; Leishmania in macrophages: 59.95%; T. brucei: 18.71%. CN(CCO)Cc1nnc(C2CCN(CC(C)(C)C)CC2)n1C gave Toxoplasma: -1.931%; Leishmania in macrophages: 13.12%; TcHisRS: 8.939%; LiHisRS: 1.042%; ClpP1P2: 1.219%; T. brucei: -5.164%. For O=C(O)CC(O)(CC(=O)O)C(=O)O.c1ccc([C@@H]2CN(Cc3ccncc3)C[C@H]2c2cc[nH]n2)cc1 the result was Toxoplasma: -4.245%; Leishmania in macrophages: 11.96%; T. brucei: -6.046%.

For Cc1c(C(=O)NCCCC(N)=O)sc2ccc(F)cc12 the result was Toxoplasma: 1.827%; Leishmania in macrophages: 42.74%; TcHisRS: 0.8772%; LiHisRS: 10.71%; ClpP1P2: 5.775%; T. brucei: -56.06%. For COc1ccc(C(O)C(=O)N2CCC(c3nccn3C(C)C)CC2)cc1 (stereo not given) the result was Toxoplasma: -0.3953%; Leishmania in macrophages: 4.074%; TcHisRS: 2.02%; LiHisRS: 3.279%; ClpP1P2: -13.77%; T. brucei: -7.614%. CN(C)C(=O)CN1CCC2(CC1)CC(=O)c1c(ccc3ccccc13)O2 gave Toxoplasma: -19.66%; Leishmania in macrophages: 28.29%; TcHisRS: -2.273%; LiHisRS: 15.84%; ClpP1P2: -2.905%; T. brucei: -10.39%. For CCCc1noc(CCC(=O)N2CCCC2c2cccs2)n1 (stereo not given) the result was Toxoplasma: 2.385%; Leishmania in macrophages: 23.24%; TcHisRS: 4%; LiHisRS: 16.95%; ClpP1P2: -17.42%. CC(CS(C)(=O)=O)N(C(=O)CCc1ccc(Cl)s1)C1CC1 (stereo not given) read Toxoplasma: -2.862%; Leishmania in macrophages: 12.64%; TcHisRS: 1.948%; LiHisRS: 9.677%; ClpP1P2: -13.27%; T. brucei: -0.02176%.

Repeated from the top, 2 entries:

- O=C1N(CC2CC2)CCC12CCN(c1ncccn1)CC2 : TcHisRS: 4.511%; LiHisRS: 24.39%; ClpP1P2: 13.64%
- COc1c(CNC2CCc3c(Cl)cccc32)c(C)nn1C (stereo not given) : TcHisRS: 2.905%; LiHisRS: 20.39%; ClpP1P2: -10.8%